Source: EP1736154A1 (priority 2005, dated 2006)
No constants are given. Whether binding was seen depends on the method and setting. Binding seen in cells or lysates may run through a third protein. A result given as binding can be weak or reduced; the word gives no strength. Tags and fused reporters may be left off the sequences shown.

Key:
HA-PP1 [1] = test: co-immunoprecipitation (anti-GFP) from transfected HEK293 cells, Western blot with anti-PP1
HA-PP1 [2] = test: co-immunoprecipitation (anti-GFP), reblot with anti-PP1 antisera (Figure 1B)

B1: EGFP-tra2-beta1 (protein, UniProt P62995 1-288, looked up, not shown: large carriers)
chain: MSDSGEQNYGERESRSASRSGSAHGSGKSARHTPARSRSKEDSRRSRSKSRSRSESRSRSRRSSRRHYTRSRSRSRSHRRSRSRSYSRDYRRRHSHSHSPMSTRRRHVGNRANPDPNCCLGVFGLSLYTTERDLREVFSKYGPIADVSIVYDQQSRRSRGFAFVYFENVDDAKEAKERANGMELDGRRIRVDFSITKRPHTPTPGIYMGRPTYGSSRRRDYYDRGYDRGYDDRDYYSRSYRGGGGGGGGWRAAQDRDQIYRRRSPSPYYSRGGYRSRSRSRSYSPRRY
What does the source list for B1?
binding (HA-PP1 [1]): binds; binding (HA-PP1 [2]): binds
